Some of the results follow.
What follows are targets tested with CON(C)C(=O)N1N=C(c2cc(F)ccc2F)S[C@@]1(CCCN)c1ccccc1 [filanesib] (assay: log2 fold change, soluble protein after heating vs DMSO (PISA); higher = thermal stabilisation; K562 cells, 10 uM, 30 min; active = over 0.2 and 3.5 SD of the protein, either way, in both replicates (recomputed)).
Method in brief: (§1)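 K562 cells at 2×10^6 cells/mL were exposed to 10 μM compound for 30 min, then aliquots were heated for 3 min across 48°C-58°C, pooled, and extracted in PBS containing 0.5% NP-40 at 4°C. The supernatant after 21,000xg for 90 min was taken as soluble protein and measured by TMTpro 16plex LC-MS/MS with channel sums equalised. Thermal stability is reported relative to control samples, with values from duplicates. Fold changes are given on a log2 scale.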

Sequences of proteins named here, by UniProt entry; tags and fusion partners are left off. A change or cut given only in a name is not applied to a line headed by its entry.
UniProt O94923: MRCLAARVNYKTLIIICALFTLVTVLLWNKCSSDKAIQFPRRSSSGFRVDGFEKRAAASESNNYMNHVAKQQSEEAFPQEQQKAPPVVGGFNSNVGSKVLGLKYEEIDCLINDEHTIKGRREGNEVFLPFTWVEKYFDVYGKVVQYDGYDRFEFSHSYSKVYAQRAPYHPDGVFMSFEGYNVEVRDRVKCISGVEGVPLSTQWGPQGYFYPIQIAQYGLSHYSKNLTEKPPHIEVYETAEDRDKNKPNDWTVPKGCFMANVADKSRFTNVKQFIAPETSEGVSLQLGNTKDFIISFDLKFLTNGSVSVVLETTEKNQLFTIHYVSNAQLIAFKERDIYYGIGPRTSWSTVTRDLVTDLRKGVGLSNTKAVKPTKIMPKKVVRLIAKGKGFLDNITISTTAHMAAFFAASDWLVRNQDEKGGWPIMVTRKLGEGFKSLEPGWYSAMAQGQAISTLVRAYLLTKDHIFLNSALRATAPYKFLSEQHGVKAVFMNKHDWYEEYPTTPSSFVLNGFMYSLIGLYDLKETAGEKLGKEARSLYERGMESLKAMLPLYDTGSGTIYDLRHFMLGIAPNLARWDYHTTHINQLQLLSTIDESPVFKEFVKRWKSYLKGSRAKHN
UniProt P21695: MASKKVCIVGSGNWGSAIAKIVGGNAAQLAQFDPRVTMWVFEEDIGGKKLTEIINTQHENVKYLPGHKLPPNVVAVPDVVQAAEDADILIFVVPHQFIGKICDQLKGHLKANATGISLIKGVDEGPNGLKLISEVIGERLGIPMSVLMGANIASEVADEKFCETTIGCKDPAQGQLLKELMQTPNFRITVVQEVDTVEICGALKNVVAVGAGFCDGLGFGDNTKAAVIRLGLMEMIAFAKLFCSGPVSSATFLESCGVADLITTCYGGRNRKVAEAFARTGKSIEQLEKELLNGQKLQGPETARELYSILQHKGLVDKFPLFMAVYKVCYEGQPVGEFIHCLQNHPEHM
UniProt Q8NBJ4: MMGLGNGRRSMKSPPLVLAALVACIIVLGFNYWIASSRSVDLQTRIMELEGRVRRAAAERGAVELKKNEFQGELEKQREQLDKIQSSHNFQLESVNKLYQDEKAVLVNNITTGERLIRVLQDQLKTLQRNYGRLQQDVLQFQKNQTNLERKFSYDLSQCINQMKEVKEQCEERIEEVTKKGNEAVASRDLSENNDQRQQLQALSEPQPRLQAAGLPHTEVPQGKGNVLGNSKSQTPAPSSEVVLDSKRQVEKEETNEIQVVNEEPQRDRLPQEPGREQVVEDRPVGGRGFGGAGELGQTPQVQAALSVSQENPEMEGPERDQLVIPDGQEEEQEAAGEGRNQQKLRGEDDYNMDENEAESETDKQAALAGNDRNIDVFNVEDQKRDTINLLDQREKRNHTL
UniProt Q9NZD2: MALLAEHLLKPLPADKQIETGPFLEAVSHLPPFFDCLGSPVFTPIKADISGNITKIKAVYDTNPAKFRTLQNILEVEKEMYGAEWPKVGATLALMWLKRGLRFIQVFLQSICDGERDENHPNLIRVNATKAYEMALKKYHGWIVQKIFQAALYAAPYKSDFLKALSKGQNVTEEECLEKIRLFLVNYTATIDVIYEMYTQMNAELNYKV
UniProt Q9HCL2: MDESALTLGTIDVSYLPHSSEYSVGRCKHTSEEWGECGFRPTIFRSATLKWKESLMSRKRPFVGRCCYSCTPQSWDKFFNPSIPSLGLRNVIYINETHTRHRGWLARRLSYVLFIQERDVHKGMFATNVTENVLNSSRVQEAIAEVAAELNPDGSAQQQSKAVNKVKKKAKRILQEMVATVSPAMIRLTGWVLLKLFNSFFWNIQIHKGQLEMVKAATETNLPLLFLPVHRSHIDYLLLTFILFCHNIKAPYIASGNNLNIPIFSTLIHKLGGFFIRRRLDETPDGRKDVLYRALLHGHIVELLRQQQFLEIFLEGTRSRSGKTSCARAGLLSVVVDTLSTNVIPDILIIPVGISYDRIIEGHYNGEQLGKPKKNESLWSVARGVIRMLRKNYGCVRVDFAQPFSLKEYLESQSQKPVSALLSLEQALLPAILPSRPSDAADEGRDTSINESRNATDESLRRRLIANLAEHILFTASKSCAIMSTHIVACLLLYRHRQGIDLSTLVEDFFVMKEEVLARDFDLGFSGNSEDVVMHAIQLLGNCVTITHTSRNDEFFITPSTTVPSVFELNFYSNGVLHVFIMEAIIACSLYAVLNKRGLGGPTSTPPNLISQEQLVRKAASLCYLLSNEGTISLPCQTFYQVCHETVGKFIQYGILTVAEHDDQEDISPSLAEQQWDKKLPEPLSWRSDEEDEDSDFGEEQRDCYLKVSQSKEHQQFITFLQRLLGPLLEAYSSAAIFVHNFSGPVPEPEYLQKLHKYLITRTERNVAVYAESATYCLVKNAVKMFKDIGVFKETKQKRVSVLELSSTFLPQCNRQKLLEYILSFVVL
UniProt Q9NU53: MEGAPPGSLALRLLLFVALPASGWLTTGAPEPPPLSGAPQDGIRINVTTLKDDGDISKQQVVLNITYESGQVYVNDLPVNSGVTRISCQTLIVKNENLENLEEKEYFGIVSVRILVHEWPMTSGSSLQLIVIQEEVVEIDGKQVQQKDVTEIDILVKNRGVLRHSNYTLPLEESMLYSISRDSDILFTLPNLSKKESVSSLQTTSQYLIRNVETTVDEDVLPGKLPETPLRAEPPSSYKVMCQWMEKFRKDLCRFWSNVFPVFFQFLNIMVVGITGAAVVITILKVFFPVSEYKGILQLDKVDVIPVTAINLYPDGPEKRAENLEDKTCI
UniProt A6NDN3: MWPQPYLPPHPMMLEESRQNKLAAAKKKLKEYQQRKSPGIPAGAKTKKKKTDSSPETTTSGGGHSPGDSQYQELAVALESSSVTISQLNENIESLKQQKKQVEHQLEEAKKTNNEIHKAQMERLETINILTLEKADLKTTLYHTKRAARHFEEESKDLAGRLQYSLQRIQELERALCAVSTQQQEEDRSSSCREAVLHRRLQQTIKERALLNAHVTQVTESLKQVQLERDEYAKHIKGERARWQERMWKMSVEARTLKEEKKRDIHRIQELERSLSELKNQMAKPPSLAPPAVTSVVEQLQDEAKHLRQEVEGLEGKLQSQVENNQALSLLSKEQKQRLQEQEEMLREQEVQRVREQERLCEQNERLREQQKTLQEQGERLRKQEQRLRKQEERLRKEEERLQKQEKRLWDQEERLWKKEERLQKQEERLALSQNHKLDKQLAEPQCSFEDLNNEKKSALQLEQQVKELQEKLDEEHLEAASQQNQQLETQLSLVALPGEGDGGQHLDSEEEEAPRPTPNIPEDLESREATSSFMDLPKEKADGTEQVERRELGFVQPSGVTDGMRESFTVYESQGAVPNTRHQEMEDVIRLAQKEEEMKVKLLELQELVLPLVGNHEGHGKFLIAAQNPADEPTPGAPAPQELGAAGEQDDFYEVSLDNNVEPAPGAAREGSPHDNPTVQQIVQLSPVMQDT
UniProt Q14161: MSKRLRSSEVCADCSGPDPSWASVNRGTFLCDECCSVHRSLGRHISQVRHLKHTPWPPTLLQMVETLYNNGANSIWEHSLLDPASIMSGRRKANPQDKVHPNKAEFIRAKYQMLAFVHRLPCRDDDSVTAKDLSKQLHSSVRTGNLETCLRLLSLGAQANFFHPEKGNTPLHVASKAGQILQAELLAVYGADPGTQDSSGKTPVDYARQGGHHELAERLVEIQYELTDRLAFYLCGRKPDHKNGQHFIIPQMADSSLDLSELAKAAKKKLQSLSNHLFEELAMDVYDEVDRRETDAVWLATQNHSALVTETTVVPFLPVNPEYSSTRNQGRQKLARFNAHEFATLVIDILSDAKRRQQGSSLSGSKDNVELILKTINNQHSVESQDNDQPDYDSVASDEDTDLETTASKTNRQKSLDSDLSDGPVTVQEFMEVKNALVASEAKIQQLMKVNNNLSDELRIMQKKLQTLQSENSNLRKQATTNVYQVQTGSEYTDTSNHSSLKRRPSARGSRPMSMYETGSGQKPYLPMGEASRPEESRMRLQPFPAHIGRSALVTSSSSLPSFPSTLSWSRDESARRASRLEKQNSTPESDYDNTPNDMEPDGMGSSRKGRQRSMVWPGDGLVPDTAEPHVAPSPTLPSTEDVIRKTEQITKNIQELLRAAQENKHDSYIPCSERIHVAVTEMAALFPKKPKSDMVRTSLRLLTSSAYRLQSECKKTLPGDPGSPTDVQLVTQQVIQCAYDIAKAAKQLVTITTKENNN
UniProt Q6ZS86: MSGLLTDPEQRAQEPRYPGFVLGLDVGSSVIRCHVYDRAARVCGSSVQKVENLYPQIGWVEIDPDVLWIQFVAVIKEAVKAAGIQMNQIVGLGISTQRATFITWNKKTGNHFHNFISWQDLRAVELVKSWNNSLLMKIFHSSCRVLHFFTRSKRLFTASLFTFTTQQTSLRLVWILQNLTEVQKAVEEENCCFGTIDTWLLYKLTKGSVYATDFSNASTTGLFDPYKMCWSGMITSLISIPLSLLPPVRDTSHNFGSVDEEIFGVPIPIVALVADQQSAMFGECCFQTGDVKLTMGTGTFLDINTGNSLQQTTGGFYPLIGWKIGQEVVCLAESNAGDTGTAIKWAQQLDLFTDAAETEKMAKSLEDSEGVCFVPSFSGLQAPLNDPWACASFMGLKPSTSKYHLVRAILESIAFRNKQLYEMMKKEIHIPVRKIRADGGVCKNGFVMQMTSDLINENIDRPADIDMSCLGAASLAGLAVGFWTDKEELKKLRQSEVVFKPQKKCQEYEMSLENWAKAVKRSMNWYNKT
UniProt Q53GS7: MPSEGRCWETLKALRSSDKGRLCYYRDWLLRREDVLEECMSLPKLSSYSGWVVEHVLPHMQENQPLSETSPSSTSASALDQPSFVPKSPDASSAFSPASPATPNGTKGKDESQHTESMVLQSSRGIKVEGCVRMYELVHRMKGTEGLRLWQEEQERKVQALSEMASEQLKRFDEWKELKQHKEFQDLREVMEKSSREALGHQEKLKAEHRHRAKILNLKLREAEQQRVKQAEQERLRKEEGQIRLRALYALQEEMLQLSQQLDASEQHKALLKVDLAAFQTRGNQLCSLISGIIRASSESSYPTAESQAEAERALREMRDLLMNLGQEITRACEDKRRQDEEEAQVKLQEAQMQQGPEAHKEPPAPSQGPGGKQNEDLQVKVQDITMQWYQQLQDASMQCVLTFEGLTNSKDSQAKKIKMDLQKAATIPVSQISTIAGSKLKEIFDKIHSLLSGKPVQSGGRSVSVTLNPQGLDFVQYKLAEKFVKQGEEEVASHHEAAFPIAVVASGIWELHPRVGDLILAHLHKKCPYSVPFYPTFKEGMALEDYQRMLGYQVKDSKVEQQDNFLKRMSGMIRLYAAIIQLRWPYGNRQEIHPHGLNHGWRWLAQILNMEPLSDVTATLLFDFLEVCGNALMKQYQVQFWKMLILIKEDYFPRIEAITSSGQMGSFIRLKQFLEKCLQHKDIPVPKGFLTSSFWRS
UniProt Q5T3I0: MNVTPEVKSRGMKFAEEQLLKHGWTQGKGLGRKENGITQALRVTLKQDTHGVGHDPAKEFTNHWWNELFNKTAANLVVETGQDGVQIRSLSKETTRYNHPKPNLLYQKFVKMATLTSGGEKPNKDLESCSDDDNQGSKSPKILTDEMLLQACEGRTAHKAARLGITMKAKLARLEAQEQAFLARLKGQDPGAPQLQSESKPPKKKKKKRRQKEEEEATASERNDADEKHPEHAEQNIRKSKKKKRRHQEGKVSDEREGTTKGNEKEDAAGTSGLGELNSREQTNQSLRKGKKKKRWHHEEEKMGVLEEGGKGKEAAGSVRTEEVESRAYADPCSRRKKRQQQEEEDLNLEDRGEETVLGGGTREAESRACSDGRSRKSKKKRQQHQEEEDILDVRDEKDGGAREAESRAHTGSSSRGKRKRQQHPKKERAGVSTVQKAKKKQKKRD
UniProt Q8TD30: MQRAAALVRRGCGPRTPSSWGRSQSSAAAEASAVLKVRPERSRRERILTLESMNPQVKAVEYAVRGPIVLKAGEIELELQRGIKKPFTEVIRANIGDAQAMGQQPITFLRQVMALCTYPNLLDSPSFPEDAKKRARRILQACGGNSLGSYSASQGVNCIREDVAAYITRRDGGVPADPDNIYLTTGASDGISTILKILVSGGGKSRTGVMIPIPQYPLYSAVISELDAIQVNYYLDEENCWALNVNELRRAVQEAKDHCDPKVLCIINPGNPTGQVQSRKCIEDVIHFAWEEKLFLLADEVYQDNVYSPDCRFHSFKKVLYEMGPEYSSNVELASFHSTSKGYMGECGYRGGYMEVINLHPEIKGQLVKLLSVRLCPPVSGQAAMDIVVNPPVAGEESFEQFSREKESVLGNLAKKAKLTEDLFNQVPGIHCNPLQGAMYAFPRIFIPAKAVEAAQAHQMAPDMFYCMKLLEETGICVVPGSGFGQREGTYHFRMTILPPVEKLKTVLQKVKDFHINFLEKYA

log2 fold change, inactive:
GLCE (UniProt O94923) -0.005
GPD1 (UniProt P21695) -0.083
GIGYF1 (UniProt O75420) 0
GPS2 (UniProt Q13227) 0.018
GREB1 (UniProt Q4ZG55) 0.074
GOLM1 (UniProt Q8NBJ4) 0.005
GNL3 (UniProt Q9BVP2) -0.038
GOPC (UniProt Q9HD26) 0.259
GOLPH3L (UniProt Q9H4A5) 0.206
GLTP (UniProt Q9NZD2) -0.187
GPAM (UniProt Q9HCL2) 0.123
GINM1 (UniProt Q9NU53) 0.025
GOLGA6B (UniProt A6NDN3) -0.115

Each target was assayed with CO[C@H]1C[C@@H]2CC[C@@H](C)[C@@](O)(O2)C(=O)C(=O)N2CCCC[C@H]2C(=O)O[C@H]([C@H](C)C[C@@H]2CC[C@H](n3cnnn3)[C@H](OC)C2)CC(=O)[C@H](C)/C=C(\C)[C@@H](O)[C@@H](OC)C(=O)[C@H](C)C[C@H](C)/C=C/C=C/C=C/1C [zotarolimus] in the same assay as above.
Method in brief: as §1

log2 fold change, inactive:
GLCE (UniProt O94923) -0.117
GPD1 (UniProt P21695) 0.022
GPAA1 (UniProt E9PLG8) 0.004
GLS2 (UniProt Q9UI32) 0.261
GSE1 (UniProt Q14687) -0.063
GIGYF1 (UniProt O75420) 0.158
GIT2 (UniProt Q14161) 0.106
GK5 (UniProt Q6ZS86) -0.049
GREB1 (UniProt Q4ZG55) 0.07
GOLM1 (UniProt Q8NBJ4) -0.181
GLE1 (UniProt Q53GS7) -0.046
GORASP1 (UniProt Q9BQQ3) -0.069
GNL3 (UniProt Q9BVP2) -0.012
GP6 isoform 3 (UniProt Q9HCN6) 0.104
GOPC (UniProt Q9HD26) 0.329
GLTP (UniProt Q9NZD2) -0.008
GPS1 (UniProt A8K070) 0.07
GPATCH4 isoform 3 (UniProt Q5T3I0) 0.028
GPT2 (UniProt Q8TD30) -0.27
GNPTG (UniProt Q9UJJ9) 0.002
GOSR1 (UniProt E9PCW1) 0.075
GOLGA8R (UniProt I6L899) -0.027
GPX3 (UniProt P22352) -0.261
